These results are taken from article PMC4995099, “Drosophila Nanos acts as a molecular clamp that modulates the RNA-binding and repression activities of Pumilio”.

A negative result means that nothing was seen under these conditions. For some of these results: At least one verdict was read from the data and is not stated in words by the source. For some of these results: Tags and fusion partners may be left off the protein sequences shown.

Common to all, as to assay: EMSA
Data set [1] concerns Pum PUM-HD WT (EMSA) + Nos ZC WT (EMSA). The following applies: ternary complex not formed; EMSA: 50 mM Tris-HCl pH 7.6, 150 mM NaCl, 2 mM DTT, 2 ug/mL BSA, 0.01% Igepal CA-630, 0.02% bromophenol blue, 20% glycerol, 3 h at 4 C; 1 nM Cy5 RNA or 0.3 nM 32P RNA; recombinant protein. (In EMSA bound probe runs differently from free probe, usually more slowly.)
The test system of data set [2] is Pum F1367S + Nos ZC WT (EMSA). As to conditions: ternary complex not formed, RNA label form not stated; EMSA: 50 mM Tris-HCl pH 7.6, 150 mM NaCl, 2 mM DTT, 2 ug/mL BSA, 0.01% Igepal CA-630, 0.02% bromophenol blue, 20% glycerol, 3 h at 4 C; 1 nM Cy5 RNA or 0.3 nM 32P RNA; recombinant protein; label: 5' Cy5.
The subject of data set [3] is Pum PUM-HD WT (EMSA) + Nos ZC C319Y. The following applies: ternary complex not formed; EMSA: 50 mM Tris-HCl pH 7.6, 150 mM NaCl, 2 mM DTT, 2 ug/mL BSA, 0.01% Igepal CA-630, 0.02% bromophenol blue, 20% glycerol, 3 h at 4 C; 1 nM Cy5 RNA or 0.3 nM 32P RNA; recombinant protein; label: 5' Cy5.
Data set [4] deals with Pum PUM-HD WT (EMSA) + Nos ZC C354Y. The following applies: ternary complex not formed; EMSA: 50 mM Tris-HCl pH 7.6, 150 mM NaCl, 2 mM DTT, 2 ug/mL BSA, 0.01% Igepal CA-630, 0.02% bromophenol blue, 20% glycerol, 3 h at 4 C; 1 nM Cy5 RNA or 0.3 nM 32P RNA; recombinant protein; label: 5' Cy5.
The subject of data set [5] is Pum Q1337A + Nos ZC WT (EMSA). As to conditions: ternary complex not formed, RNA label form not stated; EMSA: 50 mM Tris-HCl pH 7.6, 150 mM NaCl, 2 mM DTT, 2 ug/mL BSA, 0.01% Igepal CA-630, 0.02% bromophenol blue, 20% glycerol, 3 h at 4 C; 1 nM Cy5 RNA or 0.3 nM 32P RNA; recombinant protein; label: 5' Cy5.
The target of data set [6] is T1, Pum mutR7 S1342A,N1343A,E1346A (UniProt P25822).
T1 sequence (looked up): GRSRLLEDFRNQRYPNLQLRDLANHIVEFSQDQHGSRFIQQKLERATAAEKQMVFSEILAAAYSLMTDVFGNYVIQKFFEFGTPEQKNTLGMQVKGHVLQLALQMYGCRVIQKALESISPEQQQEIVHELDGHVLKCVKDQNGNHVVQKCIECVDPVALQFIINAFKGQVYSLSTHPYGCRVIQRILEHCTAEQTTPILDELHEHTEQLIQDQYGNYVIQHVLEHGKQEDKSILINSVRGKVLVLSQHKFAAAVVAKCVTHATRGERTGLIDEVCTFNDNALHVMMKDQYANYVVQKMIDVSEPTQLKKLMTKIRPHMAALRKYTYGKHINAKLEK
The following applies: described as RNA-binding deficient; EMSA: 50 mM Tris-HCl pH 7.6, 150 mM NaCl, 2 mM DTT, 2 ug/mL BSA, 0.01% Igepal CA-630, 0.02% bromophenol blue, 20% glycerol, 3 h at 4 C; 1 nM Cy5 RNA or 0.3 nM 32P RNA; recombinant protein; residues 1091-1426; protein details: N-terminal 3xFLAG, Halo-tag removed by TEV; label: 5' Cy5.

Regarding AAACUGUACAUAAGCC [hb NRE2 -1C RNA], in data set [1], the binding result is listed as “no binding”.
With AACUUGUACAUAAGCC [hb NRE2 -2C RNA], in data set [1], the binding result is reported as “no binding”.
Regarding “UUGUUGUCGAAAAUUGUACAUAAGCC [Cy5-hb NRE2 RNA]”, the binding result in data set [2], in data set [3], in data set [4], in data set [5] and in data set [6] was “no binding” in each case.
